This passage reports AC50 results from PubChem BioAssay AID445 (National Center for Advancing Translational Sciences (NCATS), 2006).

Values joined by “and” are separate entries in the source; they are usually repeats but may differ in a detail not shown here. Identical values can stand only once. The list shows a part of the results. Shown are side measurements of this screen, not its main read-out; they come without a call. Compounds called inactive in the main read-out are mostly missing here. The note in brackets gives the kind of curve behind each potency; many fits are weak.

The assay in a line: IkB Signaling. Conditions: ABC-DLBCL IkBa-CBG/CBR dual luciferase ratio (green luciferase fused to IkBa over red control in OCI-Ly3 lymphoma cells), 4 h. The procedure, abridged:
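In this assay, an IκBα–CBG68 fusion accumulates when IKK-driven degradation is blocked; native CBR normalizes for cell number. OCI-Ly3 cells were treated 4 h with compound and doxycycline, then green and red light read after Chroma-Glo addition.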

Setting [1] is: measured here: control luc red channel unless noted.

Broadly, the AC50 is the concentration giving half of the maximal activity seen. As for `COc1cccc(C(c2c(O)cc(C)n(Cc3ccco3)c2=O)N2CCC(C)CC2)c1` (configuration not stated), the AC50 under setting [1] is 0.316 µM [falling, full curve, poor fit].

With `COc1ccc(-c2nc(C)c(CCNC(=O)c3cc(OC)c(OC)c(OC)c3)s2)cc1OC`, the AC50 under setting [1] was 25.1 µM [falling, single point].

`O=C(NCc1ccccc1)c1cc2ccccc2o1`: the half-maximal activity concentration (AC50) under setting [1] was 0.501 µM [falling, partial curve, poor fit].

On to `Cc1ccc2c(c1)c(=O)c(C(=O)c1ccncc1)cn2CC(=O)Nc1ccc(C(C)C)cc1`, for which the AC50 under setting [1] is 1.58 µM [falling, full curve, poor fit].

For the compound `Cc1ccc(N2CC(NC(=O)c3ccc(Br)o3)CC2=O)cc1C` (configuration not stated), the AC50 under setting [1] was 7.94 µM [rising, single point].

For the compound `O=C(NC1=NCCS1)C1COc2ccccc2O1` (configuration not stated), the AC50 under setting [1] is 12.6 µM [falling, partial curve].

For the compound `Cc1nnc(N2CCN(c3ccccc3F)CC2)c2c1nnn2Cc1ccccc1Cl`, under setting [1], the AC50 was 0.251 µM [falling, full curve, poor fit].

Regarding `CCOc1ccc(NCc2cccn2-c2nnc(N3CCC(C(=O)NCc4ccc(C)cc4)CC3)s2)cc1`, under setting [1], the AC50 is 25.1 µM [falling, partial curve].

Consider `COc1ccc2nc3oc(C(=O)N(C)c4ccc(Cl)cc4)cc3cc2c1`, for which, under setting [1], the AC50 was 31.6 µM [falling, single point].

Turning to `O=C(Nc1ccc(N2CCCC2)cc1)c1cccc(F)c1`, the concentration at half-maximal activity (AC50) under setting [1] was 3.98 µM [falling, full curve].

`O=C(NCCc1ccccc1)NC1CCCCC1`: under setting [1], the AC50 is 20 µM [falling, single point].

As to `CCCN1C(=O)CN(C2CCCCC2)C(=O)C1c1ccc(OC)c(OC)c1` (configuration not stated), under setting [1], the AC50 is 3.16 µM [rising, full curve, poor fit].

Consider `COc1ccc(NC(=O)Cn2c(=O)n(CCC(=O)NCCc3ccc(OC)c(OC)c3)c(=O)c3ccccc32)cc1Cl`, for which, under setting [1], the AC50 was 1 µM [rising, partial curve, poor fit].

Turning to `O=C(C1CCN(S(=O)(=O)c2ccccc2)CC1)N(CCc1ccccc1)Cc1ccco1`, the AC50 under setting [1] is 25.1 µM [falling, partial curve].

On to `Cc1cccc(-n2ncc(C(=O)N3CCN(C(=O)c4ccco4)CC3)c2C2CCN(C(=O)OC(C)(C)C)CC2)c1`, for which the AC50 under setting [1] was 0.0398 µM [falling, full curve, poor fit].

For `Cc1ccc2c(=O)cc(C(=O)Nc3ccc(S(=O)(=O)Nc4onc(C)c4C)cc3)oc2c1`, the AC50 under setting [1] is 12.6 µM [falling, partial curve].

Turning to `COc1cccc([C@@H]2Nc3ccc(C(=O)O)cc3[C@@H]3C=CC[C@@H]32)c1OC`, the AC50 under setting [1] was 25.1 µM [falling, partial curve, poor fit].

As to `Cc1cc(C)c2[nH]c(=O)c(CN(Cc3nnnn3C3CCCC3)C3CCCCC3)cc2c1`, the AC50 under setting [1] is 12.6 µM [falling, partial curve].

With `CCOc1ccc(S(=O)(=O)n2cnc3cc(C)c(C)cc32)cc1`, the AC50 under setting [1] was 31.6 µM [falling, partial curve].

As to `Cc1ccc(S(=O)(=O)c2cc3c(=O)n4ccccc4nc3n(Cc3ccco3)c2=N)cc1C`, the AC50 is, setting by setting: (measured here: IkB-luc green channel) 10 µM [rising, partial curve]; (measured here: control luc red channel) 10 µM [falling, partial curve].

For `COc1ccc(C)cc1NC(=O)C1CCCN(S(=O)(=O)c2ccc3c(c2)oc(=O)n3C)C1` (configuration not stated), the AC50 under setting [1] was 20 µM [falling, single point].

For the compound `CCCn1c(NC(=O)c2ccc(Cl)c(S(=O)(=O)N3CCCC3)c2)nc2ccccc21`, under setting [1], the AC50 is 1.58 µM [falling, partial curve].

On to `CC(=O)Nc1ccc(S(=O)(=O)N2CCN(c3ccccc3)CC2)cc1`, for which, under setting [1], the AC50 is 15.8 µM [falling, partial curve].

Regarding `Cc1ccc(SCc2nc(-c3ccc(C(=O)NCc4ccccc4Cl)cc3)oc2C)cc1`, the AC50 under setting [1] was 3.98 µM [falling, full curve].

`Cc1ccc2c(c1)-c1c(cnn1CC(=O)N1CCCN(Cc3ccccc3F)C1)CO2`: under setting [1], the AC50 is 15.8 µM [falling, partial curve].

For `COc1cccc(CNC(=O)CN(c2ccc(C(C)C)cc2)S(=O)(=O)c2c(C)n[nH]c2C)c1`, the AC50 under setting [1] is 12.6 µM [falling, partial curve].

Take `COc1ccc(CNc2oc(COc3cccc(C)c3)nc2C#N)cc1`: the AC50 under setting [1] is 25.1 µM [falling, single point].

For the compound `CCCc1ccc(OCc2ccc(C(=O)N3CCN(c4ccccn4)CC3)o2)c(OC)c1`, under setting [1], the AC50 is 7.94 µM [falling, full curve].

On to `COc1cccc2cc(-c3nnc(-c4ccc(Cl)cc4)o3)c(=O)oc12`, for which, under setting [1], the concentration at half-maximal activity (AC50) was 7.94 µM [falling, partial curve].

Take `CCc1nn(CC(=O)N2CCN(c3cccc(C(F)(F)F)c3)CC2)c(=O)c2cc3occc3n12`: under setting [1], the AC50 was 15.8 µM [falling, single point].

Regarding `CCN(CC)S(=O)(=O)c1cccc(C(=O)Nc2ccc(Cl)cn2)c1`, under setting [1], the AC50 was 12.6 µM [falling, partial curve].

Regarding `CCOC(=O)Cc1csc(NC(=O)c2ccc(Br)s2)n1`, under setting [1], the AC50 is 10 µM [falling, partial curve].

For the compound `COc1ccc2c(CNCc3cccs3)c(C(=O)O)n(Cc3ccc(F)cc3Cl)c2c1`, the AC50 under setting [1] is 12.6 µM [falling, partial curve].

On to `CC(C)CCOc1ccc(Oc2nc(N(C)C)nc(N(C)C)n2)nn1`, for which, under setting [1], the AC50 is 31.6 µM [falling, single point].

As to `CCCCNS(=O)(=O)c1ccc2nc(SCC(=O)Nc3sccc3C#N)[nH]c2c1`, the AC50 under setting [1] is 25.1 µM [falling, partial curve].

As for `COc1ccc(NC(=O)CN(C)S(=O)(=O)c2ccc3c(c2)CCCN3C(C)=O)cc1Cl`, the AC50 under setting [1] was 0.0794 µM [falling, full curve, poor fit].

Regarding `Cc1cc(Nc2ccc(C(C)C)cc2)nc(-n2nc(C)cc2C)n1`, the AC50 under setting [1] was 39.8 µM [falling, single point].

Take `CC(C)Oc1cccc(C(=O)Nc2ccc(-c3nc4cc(Cl)cc(Cl)c4o3)cc2)c1`: under setting [1], the AC50 is 7.94 µM [falling, partial curve].

As to `Cc1cccc2sc(N(Cc3cccnc3)C(=O)Cc3ccccc3)nc12`, under setting [1], the AC50 is 39.8 µM [falling, single point].

With `Cc1ccc(NC(=O)CSc2nc(-c3cccs3)cc(C(F)(F)F)n2)cc1C`, under setting [1], the AC50 is 5.01 µM [falling, single point].

Regarding `Cc1cccc(NC(=O)CSc2cn(CC(=O)N3CCOCC3)c3ccccc23)c1`, under setting [1], the AC50 is 12.6 µM [falling, partial curve].

`COc1ccc(S(=O)(=O)N(CCc2ccccc2)CC(=O)Nc2cc(C)ccc2C)cc1`: the AC50 under setting [1] is 3.16 µM [falling, partial curve].

Take `CCc1ccc(NC(=O)C2CCN(S(=O)(=O)c3c(C)noc3/C=C/c3cccs3)CC2)cc1`: the AC50 under setting [1] was 5.01 µM [falling, full curve].

`CCOC(=O)C1=C(c2ccccc2)Nc2ncnn2C1c1ccc(Cl)cc1` (configuration not stated): under setting [1], the concentration at half-maximal activity (AC50) was 15.8 µM [falling, single point].

`COc1ccc(CNC(=O)c2ccc3c(c2)NC(=O)C(CS(=O)(=O)Cc2ccccc2Cl)N3)cc1` (configuration not stated): the AC50 under setting [1] is 15.8 µM [falling, partial curve].

`O=C(c1ccc2c(c1)N(Cc1cccc(Cl)c1)C(=O)c1ccccc1S2(=O)=O)N1CCC(Cc2ccccc2)CC1`: the concentration at half-maximal activity (AC50) under setting [1] was 12.6 µM [falling, partial curve].

In the case of `Cc1nc2ccc(S(=O)(=O)N(CC(=O)Nc3ccc(Cl)cc3)Cc3ccccc3)cc2s1`, the AC50 under setting [1] is 12.6 µM [falling, partial curve].

For the compound `COc1cc(Cl)c(C)cc1Nc1c2c(nc3ccccc13)CCC2`, the AC50 under setting [1] was 31.6 µM [falling, single point].

As for `Cc1cc(-c2csc(NC(=O)c3cc4ccccc4o3)n2)c(C)n1C`, under setting [1], the AC50 was 12.6 µM [falling, partial curve].

For the compound `COc1cc(NC(=O)CCCN2C(=O)CCn3nc(-c4cn(C)c5ccccc45)cc32)cc(OC)c1`, the half-maximal activity concentration (AC50) under setting [1] was 39.8 µM [falling, single point].

`CSc1nc(C)cc(Nc2cccc(C(=O)O)c2)n1`: the AC50 under setting [1] is 7.94 µM [falling, partial curve].

In the case of `O=c1c(O)c(-c2ccc(O)cc2)oc2cc(O)cc(O)c12`, the AC50 under setting [1] was 7.94 µM [falling, partial curve] and 12.6 µM [falling, partial curve].

As to `COc1cccc(C(=O)Nc2ccc3nc(SCC(=O)N4CCc5ccccc54)sc3c2)c1`, the half-maximal activity concentration (AC50) under setting [1] was 0.501 µM [falling, full curve].

For the compound `Cc1sc2c(c1C)c(=O)n(-c1ccc(Cl)cc1)c(=O)n2CC(=O)c1ccccc1`, under setting [1], the AC50 was 0.794 µM [falling, full curve].

As to `Cc1c(NC(=O)c2ccc(-c3ccc(F)cc3)o2)cccc1-c1nc2ncccc2o1`, the AC50 under setting [1] was 12.6 µM [falling, partial curve].

Regarding `O=c1[nH]c2ccc(S(=O)(=O)Nc3cc(Cl)ccc3O)cc2o1`, the AC50 under setting [1] was 15.8 µM [falling, single point].

Regarding `N#CC1=C(N)NC(SCc2ccccc2)=C(C#N)C12CCCCC2`, the AC50 under setting [1] was 3.98 µM [falling, partial curve].

Regarding `CC(CCc1ccco1)NC(=O)c1cc2c(-c3ccccc3F)nn(C)c2s1` (configuration not stated), the AC50 under setting [1] is 2.51 µM [falling, full curve, poor fit].

In the case of `CCOc1ccccc1N1CCN(S(=O)(=O)c2ccc3c4c(cccc24)C(=O)N3)CC1`, the half-maximal activity concentration (AC50) under setting [1] is 15.8 µM [falling, partial curve].

As for `CC(=O)Nc1cccc(-c2nnc(-c3ccccc3)o2)c1`, the AC50 under setting [1] is 10 µM [falling, partial curve].

Take `Cc1cc(F)ccc1NC(=O)CN1C(=O)CCc2cc(S(=O)(=O)N3CCOCC3)ccc21`: under setting [1], the concentration at half-maximal activity (AC50) was 25.1 µM [falling, single point].
